Our source for the binding values is publication PMC9762571.

Holding throughout (assay): co-IP; anti-HA magnetic beads overnight at 4°C on lysates (50 mM Tris, 150 mM NaCl, 0.2% Triton X-100, pH 7.5) of primary MEFs or HFFs infected for 24 h with RH ROP1-HA, PRU ROP1-HA or PRU 202200-HA; Western blot with anti-C1QBP
For test [1], the target named is ROP1-HA of the T. gondii PRU strain (PRU ROP1-HA) (Toxoplasma gondii (PRU strain)).
Test [2] concerns the target HA-tagged rhoptry protein TGME49_202200 (PRU 202200-HA) (Toxoplasma gondii (PRU strain)).
For test [3], the target named is ROP1-HA of the T. gondii RH strain (RH ROP1-HA) (Toxoplasma gondii (RH strain)).

Results are given in words; binding and its absence hold for the method and conditions named. Binding seen in cells or lysates may run through a third protein. For part of these data: Binding calls can cover weak binding; strength is not graded here.

B1: Complement Component 1q Binding Protein (C1QBP), mouse (protein, UniProt O35658 71-278)
chain: LHTEGDKAFVEFLTDEIKEEKKIQKHKSLPKMSGDWELEVNGTEAKLLRKVAGEKITVTFNINNSIPPTFDGEEEPSQGQKAEEQEPERTSTPNFVVEVTKTDGKKTLVLDCHYPEDEIGHEDEAESDIFSIKEVSFQATGDSEWRDTNYTLNTDSLDWALYDHLMDFLADRGVDNTFADELVELSTALEHQEYITFLEDLKSFVKNQ
Consider B1, for which the binding result in test [1] is recorded as “binds”; in test [2], “no binding”; in test [3], “binds”.
